Results: PMC9464229
These are yes or no findings as the source states them, for the method shown. Binding seen in cells or lysates may run through a third protein. Some entries that bind do so weakly or less than the wild type. For part of these data: Where a sequence is shown, tags or fusion partners need not be part of it.

Sequences of proteins named here, by UniProt entry; tags and fusion partners are left off.
UniProt P46937: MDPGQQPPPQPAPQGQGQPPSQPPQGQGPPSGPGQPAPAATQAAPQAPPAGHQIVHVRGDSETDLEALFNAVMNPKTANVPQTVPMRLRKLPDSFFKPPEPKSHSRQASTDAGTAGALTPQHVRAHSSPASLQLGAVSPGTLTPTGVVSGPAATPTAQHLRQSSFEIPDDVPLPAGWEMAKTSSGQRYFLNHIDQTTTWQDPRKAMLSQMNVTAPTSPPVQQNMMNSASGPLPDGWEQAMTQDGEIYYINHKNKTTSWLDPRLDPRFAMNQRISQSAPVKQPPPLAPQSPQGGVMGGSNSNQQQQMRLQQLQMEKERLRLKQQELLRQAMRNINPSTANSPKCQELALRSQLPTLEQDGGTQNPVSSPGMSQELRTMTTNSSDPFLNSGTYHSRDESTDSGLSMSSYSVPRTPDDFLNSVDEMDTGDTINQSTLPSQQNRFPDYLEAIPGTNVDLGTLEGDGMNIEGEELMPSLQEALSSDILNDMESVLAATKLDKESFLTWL

Assays:
[1] = molecular target: T1, Flag-P130cas (full-length) (UniProt P56945); assay: co-IP; tagged bait immunoprecipitated by Flag or Myc antibody from A549 cells infected with lentivirus or transfected with wild type or mutant, immunoblotted for the partners (Fig. 5D-F, Supplementary Fig. 6A)
T1 sequence: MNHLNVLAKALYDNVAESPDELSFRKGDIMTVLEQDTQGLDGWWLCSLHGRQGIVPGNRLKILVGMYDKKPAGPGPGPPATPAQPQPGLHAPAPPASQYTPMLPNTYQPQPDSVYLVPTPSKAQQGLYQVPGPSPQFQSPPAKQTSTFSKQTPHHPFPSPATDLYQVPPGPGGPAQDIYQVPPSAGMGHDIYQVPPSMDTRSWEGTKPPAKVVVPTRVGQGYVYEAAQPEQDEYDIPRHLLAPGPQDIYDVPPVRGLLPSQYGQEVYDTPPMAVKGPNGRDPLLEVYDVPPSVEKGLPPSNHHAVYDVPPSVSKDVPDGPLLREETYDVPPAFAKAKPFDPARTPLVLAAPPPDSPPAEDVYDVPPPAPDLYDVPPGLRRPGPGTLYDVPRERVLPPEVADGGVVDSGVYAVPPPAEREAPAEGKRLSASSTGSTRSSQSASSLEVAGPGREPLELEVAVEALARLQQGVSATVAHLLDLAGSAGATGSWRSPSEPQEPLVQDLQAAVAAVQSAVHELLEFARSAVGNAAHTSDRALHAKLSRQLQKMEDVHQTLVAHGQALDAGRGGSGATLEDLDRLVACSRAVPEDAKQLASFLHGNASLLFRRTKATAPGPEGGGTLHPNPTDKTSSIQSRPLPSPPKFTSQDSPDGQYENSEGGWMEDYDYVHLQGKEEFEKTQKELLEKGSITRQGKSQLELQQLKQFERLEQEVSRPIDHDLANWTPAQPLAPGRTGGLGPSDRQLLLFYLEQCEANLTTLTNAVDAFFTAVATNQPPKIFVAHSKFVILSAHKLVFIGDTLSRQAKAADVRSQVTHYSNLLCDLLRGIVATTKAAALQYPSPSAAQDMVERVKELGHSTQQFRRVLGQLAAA

[2] = molecular target: T2, P130cas (endogenous) (human (endogenous in A549)) (UniProt P56945); assay: co-IP; co-IP of P130cas and YAP (Fig. 3H, I); cells and whether endogenous or tagged proteins not stated
T2 sequence: T1 sequence

[3] = molecular target: T2, P130cas (endogenous) (human (endogenous in A549)); assay: co-IP; endogenous P130cas, YAP or FAK immunoprecipitated from A549 cells and immunoblotted (Fig. 5A-C)

Measured: binding

Yes-associated protein (YAP), endogenous (from UniProt P46937 1-504)
binds: all assays above
